Data taken from US20220220533A1, “METHOD OF DIAGNOSING AND MONITORING SUBSTANCE ADDICTION OR BEHAVIORAL ADDICTION USING C-KIT BIOMARKER” (Wuhan University, priority 2019, published 2022).

Test system: c-Kit mRNA
Conditions: morphine 5-25 mg/kg s.c. for 6 days, compared with non-addicted rats, p<0.05

## CN1CC[C@]23c4c5ccc(O)c4O[C@H]2[C@@H](O)C=C[C@H]3[C@H]1C5 [morphine]
  expression level of c-Kit mRNA in peripheral plasma (exosomes): significantly increased
